Here are results for 6 substances from article doi:10.1101/783373 (bioRxiv, 2019).

Results are given in words; binding and its absence hold for the method and conditions named. For some of these results: In cells and extracts the contact can be indirect. Some entries that bind do so weakly or less than the wild type. Sequences can lack the tags named with a protein.

For one experiment, the target named is T1, His6-MEIG1 (human meiosis expressed gene 1 protein) (human) (UniProt Q5JSS6).
T1 sequence: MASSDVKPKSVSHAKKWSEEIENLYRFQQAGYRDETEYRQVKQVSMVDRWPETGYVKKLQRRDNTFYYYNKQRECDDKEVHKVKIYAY
Description: SEC.
For “PACRG full-length E252K (rare human variant) (from UniProt Q96M98-2 1-257)”, the binding entry was “binds”.

For the substance “PACRG full-length R160Q (rare human variant) (from UniProt Q96M98-2 1-257)”, the binding entry is recorded as “binds”.

Consider “human PACRG, full-length short isoform (257 a.a.), wild type (from UniProt Q96M98-2 1-257)”, for which the binding result is reported as “binds”.

On to “PACRG full-length Y76C (rare human variant) (from UniProt Q96M98-2 1-257)”, for which the binding entry is recorded as “binds”.

On to “PACRG full-length E86K (rare human variant) (from UniProt Q96M98-2 1-257)”, for which the binding result is reported as “binds”.

In another experiment the target is T1, His6-MEIG1 (human meiosis expressed gene 1 protein) (human). Kind of experiment: pull-down.
Regarding “human PACRG, full-length short isoform (257 a.a.), wild type (from UniProt Q96M98-2 1-257)”, the binding entry was “binds”.

Take “PACRG full-length E86A (from UniProt Q96M98-2 1-257)”: the binding result is reported as “binds”.
